Measurements reported in patent US20040138137A1, “Alloferons - immunomodulatory peptides” (Entopharm Co., Ltd., priority 1999, published 2004).
Where two headings read alike, the source gives them in different places. Part of at least one peptide drawing is inferred or uncertain, most often the ends. Ends that are not written are not given here.

Columns and labels:
[1] = tested on: human peripheral blood lymphocytes; K562 cancer cells; experiment: Cytotoxic activity of human peripheral blood lymphocytes against K562 cancer cells; details: human PBL
[2] = tested on: peripheral blood lymphocytes (PBL) in healthy donors; K562 cell line; experiment: PBL cytotoxicity in healthy donors, K562 targets; details: 17 healthy donors; positive response = statistically significant increase of lymphocyte cytotoxicity index
[3] = tested on: peripheral blood lymphocytes (PBL) in cancer patients; K562; details: 18 cancer patients; for Positive responses proportion, K562 or A531: either target
[4] = tested on: peripheral blood lymphocytes (PBL) in healthy donors; A431 cell line; details: 17 healthy donors
[5] = tested on: peripheral blood lymphocytes (PBL) in cancer patients; A431; experiment: PBL cytotoxicity in cancer patients, A431 targets

## HGVSGHGQHGVHG [Alloferon 1]
[1]
  Optimal concentration range: 0.05 to 0.5 ng/mL
[2]
  Positive responses proportion, K562: 6/17 = 35%
[3]; K562 or A431
  Positive responses coincidence: Interferon and alloferon sensitive donors: 7/18 = 38%
[3]; listed as Alloferon
  Positive responses proportion, K562 or A531: 9/18 = 50%
[3]; listed as alloferon
  Positive responses proportion, K562 or A531: 50%
[3]; positive response = statistically significant increase of lymphocyte cytotoxicity index
  Positive responses proportion, K562: 1/18 = 6%
[4]
  Positive responses proportion, A431: 6/17 = 35%
[5]
  Positive responses, patients with non-Hodgkin lymphoma: 2 of 6
